Results from PMC7719784.
These are yes or no findings as the source states them, for the method shown. Binding seen in cells or lysates may run through a third protein. Some binding calls cover weakened binding; strength is not graded here. Sequences can lack the tags named with a protein.

Target: T1, Cdhr1a-FLAG (zebrafish) (UniProt Q6B3P0)
T1 sequence: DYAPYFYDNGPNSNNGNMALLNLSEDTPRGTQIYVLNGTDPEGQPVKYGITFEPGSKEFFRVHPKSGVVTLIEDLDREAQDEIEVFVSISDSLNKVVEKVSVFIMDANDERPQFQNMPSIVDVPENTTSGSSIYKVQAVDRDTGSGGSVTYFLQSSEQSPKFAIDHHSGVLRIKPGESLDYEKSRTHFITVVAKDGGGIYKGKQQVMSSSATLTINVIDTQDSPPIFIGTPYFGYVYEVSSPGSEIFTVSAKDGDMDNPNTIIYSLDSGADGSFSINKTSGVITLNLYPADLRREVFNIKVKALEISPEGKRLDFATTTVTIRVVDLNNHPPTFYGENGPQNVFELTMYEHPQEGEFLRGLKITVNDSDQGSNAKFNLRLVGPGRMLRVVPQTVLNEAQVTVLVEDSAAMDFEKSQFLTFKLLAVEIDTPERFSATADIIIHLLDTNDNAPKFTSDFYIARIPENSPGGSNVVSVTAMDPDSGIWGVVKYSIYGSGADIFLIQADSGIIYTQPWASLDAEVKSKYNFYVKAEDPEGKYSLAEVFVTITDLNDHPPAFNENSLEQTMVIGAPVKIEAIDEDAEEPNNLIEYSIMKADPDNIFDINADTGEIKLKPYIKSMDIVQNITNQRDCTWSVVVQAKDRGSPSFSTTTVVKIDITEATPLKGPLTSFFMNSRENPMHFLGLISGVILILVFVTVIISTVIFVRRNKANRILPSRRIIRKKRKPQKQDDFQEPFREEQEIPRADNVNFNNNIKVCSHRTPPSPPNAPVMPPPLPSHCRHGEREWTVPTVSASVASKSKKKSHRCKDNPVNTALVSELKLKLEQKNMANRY
Assay: co-IP; HEK 293 cells co-transfected with Cdhr1a-FLAG and Siah1-myc or Siah1ΔRING-myc; treated with MG132 for 6 h prior to lysis; precipitated with FLAG antibodies; blot probed for FLAG and MYC

binding: binds
B1: Siah1-myc (enzyme, UniProt Q7ZVG6 1-282)
chain: MSRQTATALPTGTSKCPPSQRVPTLSGTTASNSDLASLFECPVCFDYVLPPILQCQSGHLVCSNCRPKLTCCPTCRGPLGSIRNLAMEKVANSVLFPCKYASSGCEVTLPHTDKAEHEELCEFRPYSCPCPGASCKWQGSLDAVMPHLLHQHKSITTLQGEDIVFLATDINLPGAVDWVMMQSCFGFHFMLVLEKQEKYDGHQQFFAIVQLIGTRKQAENFAYRLELNGHRRRLTWEATPRSIHEGIATAIMNSDCLVFDTSIAQLFAENGNLGINVTISMC
